Data taken from publication PMC8589989.
These are yes or no findings as the source states them, for the method shown. In cells and extracts the contact can be indirect. Some results given as binding are weak or reduced against the parent protein; the word gives no strength.

Sequences of proteins named here, by UniProt entry; tags and fusion partners are left off.
UniProt P09874: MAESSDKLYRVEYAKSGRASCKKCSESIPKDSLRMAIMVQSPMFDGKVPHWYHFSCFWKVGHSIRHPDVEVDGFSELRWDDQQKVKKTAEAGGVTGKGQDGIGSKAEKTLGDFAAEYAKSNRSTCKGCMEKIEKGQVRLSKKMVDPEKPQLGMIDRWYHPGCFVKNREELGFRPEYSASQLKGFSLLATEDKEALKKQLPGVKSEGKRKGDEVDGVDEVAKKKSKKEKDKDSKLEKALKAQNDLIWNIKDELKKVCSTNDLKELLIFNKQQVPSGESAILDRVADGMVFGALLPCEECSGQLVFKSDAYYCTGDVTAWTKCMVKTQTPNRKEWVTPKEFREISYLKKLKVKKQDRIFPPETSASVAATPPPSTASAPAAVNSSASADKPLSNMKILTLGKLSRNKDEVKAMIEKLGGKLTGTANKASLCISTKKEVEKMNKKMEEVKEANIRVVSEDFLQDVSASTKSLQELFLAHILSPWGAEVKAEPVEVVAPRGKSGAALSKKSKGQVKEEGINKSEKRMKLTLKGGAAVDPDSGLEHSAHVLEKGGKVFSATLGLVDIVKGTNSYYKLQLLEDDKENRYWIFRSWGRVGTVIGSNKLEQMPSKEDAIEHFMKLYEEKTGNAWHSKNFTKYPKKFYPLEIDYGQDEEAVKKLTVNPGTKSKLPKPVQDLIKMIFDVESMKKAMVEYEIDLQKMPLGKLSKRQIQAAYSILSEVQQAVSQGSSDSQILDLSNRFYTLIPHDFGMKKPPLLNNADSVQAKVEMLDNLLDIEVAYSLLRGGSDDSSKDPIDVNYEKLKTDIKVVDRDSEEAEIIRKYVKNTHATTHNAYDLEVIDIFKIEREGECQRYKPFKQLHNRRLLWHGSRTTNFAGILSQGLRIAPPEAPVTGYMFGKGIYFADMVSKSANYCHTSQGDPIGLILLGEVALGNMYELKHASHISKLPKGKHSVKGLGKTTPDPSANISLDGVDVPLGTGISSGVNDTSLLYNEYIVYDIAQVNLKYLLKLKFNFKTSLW

Target: GFP-PARP1 (UniProt P09874)
Assay: pull-down; GFP-Trap pull-down of GFP fusion proteins from HeLa lysate (EBC buffer, benzonase), western blot for ZNF384

- binding: binds
B1: endogenous ZNF384 (HeLa) (protein, UniProt Q8TF68 1-577)
chain: MEESHFNSNPYFWPSIPTVSGQIENTMFINKMKDQLLPEKGCGLAPPHYPTLLTVPASVSLPSGISMDTESKSDQLTPHSQASVTQNITVVPVPSTGLMTAGVSCSQRWRREGSQSRGPGLVITSPSGSLVTTASSAQTFPISAPMIVSALPPGSQALQVVPDLSKKVASTLTEEGGGGGGGGGSVAPKPPRGRKKKRMLESGLPEMNDPYVLSPEDDDDHQKDGKTYRCRMCSLTFYSKSEMQIHSKSHTETKPHKCPHCSKTFANSSYLAQHIRIHSGAKPYSCNFCEKSFRQLSHLQQHTRIHSKMHTETIKPHKCPHCSKTFANTSYLAQHLRIHSGAKPYNCSYCQKAFRQLSHLQQHTRIHTGDRPYKCAHPGCEKAFTQLSNLQSHRRQHNKDKPFKCHNCHRAYTDAASLEVHLSTHTVKHAKVYTCTICSRAYTSETYLMKHMRKHNPPDLQQQVQAAAAAAAVAQAQAQAQAQAQAQAQAQAQAQASQASQQQQQQQQQQQQQQQQPPPHFQSPGAAPQGGGGGDSNPNPPPQCSFDLTPYKTAEHHKDICLTVTTSTIQVEHLASS
